PubChem BioAssay AID493014 (National Center for Advancing Translational Sciences (NCATS), 2011)
The other results are listed elsewhere or left out. These are further read-outs of the screen, such as a control signal, another cell line or another target. No call is given for them. Most of these compounds were active or inconclusive in the main read-out, so they are no random draw. Words in brackets tell the shape of the fitted curve; partial curves, single points and poor fits give uncertain potencies.

Experiment: qHTS Assay to Find Inhibitors of Chronic Active B-Cell Receptor Signaling
Settings: ABC-DLBCL IkBa-CBG/CBR reporter, luminescence ratio (green luciferase fused to IkBa over red control in TMD8 lymphoma cells), 4 h
Procedure, shortened: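 TMD8 human ABC-DLBCL cells with doxycycline-inducible IκBα–green luciferase fusion and unfused red luciferase, in 0.5% FBS medium; compounds up to 46 uM, 4 h at 37C. Green/red luminescence ratio, filter-overlap corrected, fitted to concentration-response curves.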

[1] = measured here: CBR red luminescence, cell number
[2] = measured here: IkBa-CBG green luminescence

| Compound | AC50 [1] | AC50 [2] |
| --- | --- | --- |
| O=C1C=CC(=O)N1c1ccc(OC(F)F)cc1 | 11.6 µM [falling, partial curve] | 23.1 µM [rising, partial curve, poor fit] |
| CC(=O)Nc1cccc(NC(=O)Nc2ccc(C)c(Cl)c2)c1 | 8.91 µM [falling, partial curve, poor fit] |  |
| COc1ccc(C2=NC(c3ccccc3)CO2)cc1 (configuration not stated) | 0.651 µM [falling, full curve] |  |
| CC(NC(=O)c1ccccc1Cl)C(=O)NCc1cccs1 (configuration not stated) | 0.82 µM [falling, full curve] |  |
| CC(O)/C=C/c1ccc2ccccc2n1 (configuration not stated) | 0.731 µM [falling, full curve, poor fit] |  |
| COC(=O)c1[nH]c2cccc(OC)c2c1NC(=O)CN1CC(C)OC(C)C1 (configuration not stated) | 9.2 µM [rising, partial curve, poor fit] |  |
| CC(C)c1cccc(C2=CC(=O)C[C@H](c3ccc(F)cc3)C2)c1 | 2.06 µM [rising, partial curve, poor fit] |  |
| COc1ccc(-c2nc3ccc(C)cn3c2NCc2ccccc2)cc1SC1CCCCC1 | 20.6 µM [rising, single point] |  |
| Cc1nnc(SCC(=O)Nc2ccc(N3CCOCC3)cc2)o1 | 32.6 µM [rising, single point] |  |
| O=C(OCc1ccccc1)c1ccc2c(c1)-c1ccccc1C2=O | 0.366 µM [falling, full curve] |  |
| N#Cc1cnc2cc(-c3ccccc3)nn2c1N |  | 0.891 µM [rising, full curve, poor fit] |
| O=C(O)CCN1C(=O)c2ccc(NC(=O)CSCc3ccccc3)cc2C1=O | 4.11 µM [rising, full curve, poor fit] |  |
| Fc1ccc(-c2csc(-c3ccccn3)n2)cc1F | 11.2 µM [rising, single point] |  |
| Cc1ccc(-c2c3c(nc4sc(C(N)=O)c(N)c24)CCCC3)o1 | 20.6 µM [falling, single point] |  |
| CN(C)c1cccc(C(=O)OC(C(=O)Nc2ccc([N+](=O)[O-])cc2Br)c2ccccc2)c1 (configuration not stated) | 29.1 µM [rising, single point] |  |
| Cc1cc(C)nc(N/N=C2/CCSc3ccc(F)cc32)n1 | 35.5 µM [falling, single point] |  |
| Cc1ccsc1C(=O)Nc1cc(C(C)(C)C)nn1-c1ccccc1 | 4.11 µM [falling, full curve, poor fit] |  |
| COc1cc2nc(=S)n3[nH]c(CCn4nc(C)cc4C)nc3c2cc1OC |  | 0.517 µM [falling, partial curve, poor fit] |
| COc1cccc(NC(=O)c2ncn[nH]2)c1 | 5.8 µM [falling, partial curve] |  |
| Cc1cccc(C=Nc2ccc3c4c(cccc24)CC3)c1O |  | 20.6 µM [falling, partial curve, poor fit] |
| CSc1nc2ccsc2c(=O)n1-c1ccccc1 | 12.6 µM [rising, single point] |  |
| O=C(NCc1cccnc1)c1cc(-c2ccccc2)on1 | 18.4 µM [falling, single point] |  |

| Compound | AC50 [1] | AC50 [2] |
| --- | --- | --- |
| O=C1COc2ccc(C(=O)COC(=O)c3ccccc3Cl)cc2N1 | 9.2 µM [rising, partial curve] |  |
| CC(C)C(=O)Nc1cccc(NC(=S)NC(=O)c2ccc(Cl)cc2)c1 | 8.91 µM [falling, partial curve, poor fit] |  |
| O=C(Nc1ccc(Cl)c(Cl)c1)c1cccc(S(=O)(=O)NCc2cccnc2)c1 | 18.4 µM [falling, partial curve] |  |
| Cc1csc(NC(=O)c2ccc(Cn3nc(C)c(Br)c3C)o2)n1 | 1.12 µM [falling, full curve, poor fit] |  |
| COc1cc(-c2noc(C)c2C#CC2(O)CCCCC2)cc(OC)c1OC | 3.98 µM [falling, partial curve] |  |
| COc1cccc(NC(=O)CN(C)C(=O)c2ccc(N3CCCCC3)c([N+](=O)[O-])c2)c1 | 0.651 µM [falling, partial curve, poor fit] |  |
| O=S(=O)(NCc1cccs1)c1ccccc1Cl | 18.4 µM [rising, single point] |  |
| COCCn1c(=S)[nH]c2cc(C(=O)NCCCN3CCOCC3)ccc2c1=O | 6.31 µM [falling, single point] |  |
| CCOC(=O)c1cc2cc(F)ccc2nc1C | 0.0058 µM [falling, full curve, poor fit] |  |
| COc1ccc(-c2cccc(C(=O)Nc3ccccc3C)c2)cc1 | 29.1 µM [falling, single point] |  |
| Cn1c(SCC(=O)c2ccccc2F)nnc1C1CC1 |  | 28.2 µM [falling, single point] |
| COc1ccc(/C=N/NC(N)=S)cc1 | 0.562 µM [rising, full curve, poor fit] |  |
| O=C(O)c1cc(N/N=C/c2ccncc2)ccc1Cl | 20 µM [falling, single point] |  |
| COc1cc(OC)cc(-c2c(-c3cccs3)c3cc(-c4cnc(N)nc4)ccc3n2C)c1 | 2.91 µM [falling, full curve] |  |
| Nc1ccccc1C(=O)NNC1=C(C(=O)C(F)(F)F)CCC1 | 35.5 µM [falling, single point] |  |
| CCOC(=O)c1ccc(NC(=O)c2nc[nH]c2C(=O)N[C@H](C)c2ccccc2)cc1 | 12.6 µM [rising, partial curve] |  |
| COc1ccc(NC(=O)NCCN2CCc3ccccc3C2)cc1 | 25.9 µM [rising, partial curve] |  |
| O=C(c1ccc(-c2ccccc2)cc1)c1ccccc1C(=O)N1CCOCC1 | 29.1 µM [rising, single point] |  |
| O=C(CSCc1c(F)cccc1Cl)Nc1ccccc1C(=O)N1CCOCC1 | 12.6 µM [rising, single point] |  |
| CCOC(=O)C(=CN(CCc1ccccc1)CC(=O)OC)C(=O)OCC | 18.4 µM [rising, partial curve, poor fit] |  |
| CCOC(=O)c1ccc(NC(=O)CCNC(=O)c2ccc([N+](=O)[O-])cc2)cc1 | 23.1 µM [rising, single point] |  |
| O=C1CC(NCc2ccc3c(c2)OCO3)C(=O)N1CCc1ccccc1 (configuration not stated) | 0.651 µM [rising, full curve, poor fit] |  |

| Compound | AC50 [1] | AC50 [2] |
| --- | --- | --- |
| COc1ccc(C(C)=O)cc1COc1ccc(-n2cnnn2)cc1 | 10.3 µM [rising, single point] |  |
| O=C(c1ccco1)N1CCN(S(=O)(=O)c2ccc([N+](=O)[O-])cc2)CC1 | 6.31 µM [rising, single point] |  |
| CC(C)C[C@@H](C(=O)NC1CC1)N1C(=O)N2CCc3c([nH]c4ccccc34)[C@@]2(C)C1=O | 4.47 µM [falling, full curve] |  |
| NS(=O)(=O)c1ccc(NC(=S)NC2CCCCCC2)cc1 | 1.46 µM [rising, partial curve] |  |
| Cc1ccc(S(=O)(=O)n2ccc3c(OCCOCCSCC(NC(=O)OC(C)(C)C)C(=O)O)cccc32)cc1 (configuration not stated) | 35.5 µM [falling, single point] |  |
| CCOC(=O)C1CCCN(CC(=O)NC2=Nc3ccccc3N=C(C)C2c2ccccc2)C1 (configuration not stated) | 0.259 µM [rising, partial curve, poor fit] |  |
| CCc1nc(N2CCN(C(C)=O)CC2)c2c3c(sc2n1)CCCC3 | 12.6 µM [falling, partial curve] |  |
| COc1cc([N+](=O)[O-])cc2sc(NC(=O)c3c(F)cccc3F)nc12 | 6.31 µM [falling, partial curve, poor fit] |  |
| Cc1cccc(NC(=O)c2oc3ccc(S(=O)(=O)N(C)C4CCCCC4)cc3c2C)c1C | 3.16 µM [falling, partial curve, poor fit] |  |
| Cc1ccccc1Cn1c(=O)n(CCC(=O)NCc2ccc3c(c2)OCO3)c(=O)c2ccccc21 | 6.51 µM [rising, single point] |  |
| CC(=O)NC1=NC(=O)/C(=C/c2cn(C(C)=O)nc2-c2ccccc2)S1 | 12.6 µM [falling, partial curve, poor fit] |  |
| NS(=O)(=O)c1ccc(CCNc2nc3c(-c4cccc(F)c4)nnn3c3ccccc23)cc1 | 1.16 µM [falling, full curve] |  |
| CCc1nn(CC(=O)NCCN2CCN(C)CC2)c(=O)c2cc3occc3n12 | 0.631 µM [falling, partial curve, poor fit] |  |
| NC(=S)N/N=C1\CCOc2ccc(F)cc21 | 12.6 µM [falling, partial curve] | 35.5 µM [falling, single point] |
| COc1cc(/C=N/NC(=O)c2ccc(C)nc2)cc([N+](=O)[O-])c1O | 1.78 µM [falling, partial curve] |  |
| CC(Oc1ccc2c(=O)c(-c3ccc(Cl)cc3)c(C(F)(F)F)oc2c1)C(=O)O (configuration not stated) | 3.55 µM [falling, partial curve, poor fit] |  |
| COC(=O)c1cc(C)sc1NC(=O)CCc1ccccc1 | 1 µM [rising, full curve, poor fit] |  |
| Cc1c(C(=O)NC2CCOC2)oc2c(F)cccc12 (configuration not stated) | 7.94 µM [rising, partial curve] |  |
| COc1cccc(NC(=S)/C(=C(\[O-])c2ccc(C)c([N+](=O)[O-])c2)[n+]2ccccc2)c1 | 1.16 µM [falling, full curve, poor fit] |  |
| Fc1ccccc1-c1csc(=Nc2cccnc2)n1CCCn1ccnc1 | 1.64 µM [falling, partial curve, poor fit] |  |
| CCOC(=O)CC(=O)Nc1nnc(C(C)C)s1 | 22.4 µM [falling, single point] |  |

Pulled by structure from the list above, five records:

| Compound | AC50 [1] | AC50 [2] |
| --- | --- | --- |
| NC(=S)N/N=C1\CCOc2ccc(F)cc21 | 12.6 µM [falling, partial curve] | 35.5 µM [falling, single point] |
| COc1ccc(C(C)=O)cc1COc1ccc(-n2cnnn2)cc1 | 10.3 µM [rising, single point] |  |
| CCc1nn(CC(=O)NCCN2CCN(C)CC2)c(=O)c2cc3occc3n12 | 0.631 µM [falling, partial curve, poor fit] |  |
| CC(=O)NC1=NC(=O)/C(=C/c2cn(C(C)=O)nc2-c2ccccc2)S1 | 12.6 µM [falling, partial curve, poor fit] |  |
| COc1cc(/C=N/NC(=O)c2ccc(C)nc2)cc([N+](=O)[O-])c1O | 1.78 µM [falling, partial curve] |  |
